Laboratory results taken from patent US9541834B2, “Ionic thermal acid generators for low temperature applications” (Rohm and Haas Electronic Materials LLC, priority 2012, dated 2017).

Assay: Chemical trim overcoat (CTO) trimming of resist pattern, CD shrink
Conditions: developed in 2.38% TMAH for 12 s; for Final CD: 60 nm CTO film containing the TAG on 45 nm 1:1 line/space resist, baked at 70° C., No CTO 45.7 nm; for ΔCD: CD shrink versus No CTO, CTO film baked at 70° C.

## 3-Fluoropyridinium perfluorobutanesulfonate [3-Fluoropyridinium PFBuS]
  Final CD: 26.4 nm

## N.O=S(=O)(O)C(F)(F)C(F)(F)C(F)(F)C(F)(F)F [Ammonium PFBuS, Ammonium perfluorobutanesulfonate]
  Final CD: 45.8 nm
  ΔCD: -0.1 nm
Listed as ammonium TAG
  ΔCD: no CD shrink

## Pyridazinium perfluorobutanesulfonate [Pyridazinium PFBuS]
  Final CD: 40.6 nm
